Part of at least one peptide drawing is inferred or uncertain, most often the ends. At least one structure is not confirmed: it was looked up by name or label, or the drawing left a doubt. Non-standard residues stand in square brackets, D forms with d. Residues, ends and D or L forms follow the SMILES beside them. Ala(2-furyl) = N[C@@H](Cc1ccco1)C(=O)O
target: T1, μ-opioid receptor (MOR) (Homo sapiens, UniProt P35372); assay: Opioid receptor radio-ligand binding assay (CHO-hOR cells); details: human opioid receptors, read-out: Binding affinity Ki (nM) ± SEM μ-opioid receptor (MOR)
T1 construct: expressed in transfected cells; host or cells: CHO-hOR cells (CHO cells expressing the human opioid receptor)
Protocol: Next, the synthesised peptides were subjected to biological activity testing, to know whether they still bind to the opioid receptor. If so, it is tested to which opioid receptor subtype they bind. It is also investigated whether the opioid peptides behave as agonist or antagonist. The following assays are performed: radio-ligand binding assay, ^35S GTP binding assay, and tissue experiments, including guinea pig ileum (GPI) and mouse vas deferens (MVD) tests.

Amino acid sequences for entries named in this document (tags omitted).
UniProt P35372, whole entry: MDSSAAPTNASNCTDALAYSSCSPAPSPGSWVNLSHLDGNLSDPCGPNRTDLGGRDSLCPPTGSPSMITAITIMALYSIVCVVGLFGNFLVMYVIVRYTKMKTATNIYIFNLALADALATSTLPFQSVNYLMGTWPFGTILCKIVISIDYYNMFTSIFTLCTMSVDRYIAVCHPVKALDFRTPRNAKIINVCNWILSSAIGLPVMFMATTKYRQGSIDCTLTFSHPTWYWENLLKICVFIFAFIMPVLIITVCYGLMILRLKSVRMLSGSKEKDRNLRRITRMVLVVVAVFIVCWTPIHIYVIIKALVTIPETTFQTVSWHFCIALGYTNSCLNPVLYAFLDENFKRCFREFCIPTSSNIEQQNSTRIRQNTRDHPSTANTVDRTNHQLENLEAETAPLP

SMILES | Ki [nM]
N=C(N)NCCC[C@@H](NC(=O)[C@@H](N)Cc1ccc(O)cc1)C(=O)N[C@@H](Cc1ccccc1)C(=O)N[C@@H](Cc1ccco1)C(N)=O [FUA4] (H-Y[dR]F[Ala(2-furyl)]-NH2; N-terminus and C-terminus assumed) | 251
N=C(N)NCCC[C@@H](NC(=O)[C@@H](N)Cc1ccc(O)cc1)C(=O)N[C@@H](Cc1ccco1)C(=O)N[C@@H](Cc1ccccc1)C(N)=O [FUA3] (H-Y[dR][Ala(2-furyl)]F-NH2; N-terminus and C-terminus assumed) | 32.6
N=C(N)NCCC[C@@H](NC(=O)[C@@H](N)Cc1ccc(O)cc1)C(=O)N[C@@H](Cc1ccccc1)C(=O)N[C@@H](Cc1ccccc1)C(=O)NCC(N)=O [WTP-G] (H-Y[dR]FFG-NH2; N-terminus and C-terminus assumed) | 5.84 ± 1.29
N=C(N)NCCC[C@@H](NC(=O)[C@@H](N)Cc1ccc(O)cc1)C(=O)N[C@@H](Cc1ccccc1)C(=O)N[C@@H](Cc1ccco1)C(=O)NCC(N)=O [FUA-G] (H-Y[dR]F[Ala(2-furyl)]G-NH2; N-terminus and C-terminus assumed) | 145
